Experimental data from PubChem BioAssay AID624297 (National Center for Advancing Translational Sciences (NCATS), 2012).
Among all 340,000 compounds or so, about 6,200 (1.8%) were called active. The inconclusive results got no clear call from the source; some entries with a clear call stand among them for comparison. Calls follow the shape of the dose curve; as a rule, active = well fitted activation curve with a large enough effect; inconclusive = small, poorly fitted or top-dose-only effect; inactive = no such curve, though single readings can be large or run the other way. A potency beside an inconclusive call is a rough fit, not a confirmed value.
Potency is read from the fitted curve at half-maximal effect.

Assay: A quantitative high throughput screen for small molecules that induce DNA re-replication in SW480 colon adenocarcinoma cells. Also: nearly all actives have a fitted effect of over 55% in size. As to re-replication activation: % of control where 0% means no effect.
Conditions: Hoechst DNA content imaging, 48 h; re-replication activation: at 46.1 µM (top of the series) unless noted
In short: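 Per well, 250 cells were exposed to pinned compound for 48 hr. Nuclear DNA was visualised with Hoechst (40 min, 37 C) and total object intensity recorded by fluorescence scanning.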
With Cc1ccc(COC(=O)c2nn(C)c(=O)c3ccccc23)cc1 the Potency was inconclusive: 16.4 µM [activator, single point]. In the case of Cc1cc(F)ccc1S(=O)(=O)N1CCCOC1CNC(=O)C(=O)NCc1ccccn1 (centres undefined), the Potency is reported as “inactive”. With O=C(NC1CCCCC1)c1ccc(CS(=O)(=O)c2ccc(Cl)cc2)o1 the re-replication activation was inconclusive: 157% [activator]. With CCCS(=O)(=O)c1c(S(=O)(=O)CCC)c2ccc(C(N)=O)cn2c1C(=O)OC the Potency was “inactive”. For CC1CN(S(=O)(=O)c2ccc(C(=O)N(CCCN(C)C)c3nc4cc5c(cc4s3)OCCO5)cc2)CC(C)O1 (centres undefined), the Potency was “inactive”. With CCCCN(C(=O)c1oc2ccc(OCC)cc2c1C)c1c(N)n(CC(C)C)c(=O)[nH]c1=O the Potency was inconclusive: 32.6 µM [activator, partial curve, poor fit]. In the case of Cc1nnc2n(-c3ccccc3)c(=O)c3c4c(sc3n12)CC(C)CC4 (centres undefined), the Potency is reported as “inactive”. With O=C(Nc1cccnc1)c1cc(Br)c(Br)s1 the Potency was inconclusive: 0.146 µM [activator, full curve, poor fit]. In the case of COc1ccc(N/N=C/c2c(C(=O)O)ccc3ccccc23)cc1, the Potency is reported as inconclusive: 1.03 µM [activator, full curve]. For CCN(CC)CCNC(=O)c1c(C)oc2cc(Br)c(OC)cc12, the Potency was inconclusive: 29.1 µM [activator, single point]. In the case of Cc1nc(N2CCCC2)c2nnn(Cc3ccccc3Cl)c2n1, the Potency is reported as “inactive”. In the case of OC(CNC1CCCc2ccccc21)COc1c(Cl)cccc1Cl (centres undefined), the Potency is reported as inconclusive: 18.4 µM [activator, single point]. With Cc1noc(C)c1COc1ccc(C(=O)Nc2nnc(CC(C)C)s2)cc1 the Potency was inconclusive: 29.1 µM [activator, single point]. For c1ccc(CN2CCC(N3CCC(N4CCCCCC4)CC3)CC2)cc1, the Potency was inconclusive: 29.1 µM [activator, single point]. With CC(C)N(C(=O)[C@H]1C[C@H](CC(=O)NCCCN(C)C)C(=O)N2CCc3c([nH]c4cc(-c5ccco5)ccc34)[C@]12C)C(C)C the Potency was inconclusive: 20.6 µM [activator, single point]. With O=C1CN(C(=O)c2cc3ccccc3oc2=O)C(c2ccc(F)cc2)c2cc(Br)ccc2N1 (centres undefined) the Potency was “inactive”. In the case of COc1ccccc1S(=O)(=O)Cc1ccc(C(=O)N2CCN(c3cccc(Cl)c3)CC2)o1, the Potency is reported as inconclusive: 20.6 µM [activator, single point]. With COc1ccc(/C=C/C(=O)c2ccc(OC)cc2OC)cc1 the Potency was active: 21.1 µM. For Cc1ccc2c(c1)sc[n+]2Cc1ccccc1, the Potency was inconclusive: 29.1 µM [activator, single point]. With CC1CN(C)C(C)c2c1oc1ccc([N+](=O)[O-])cc21 (centres undefined) the Potency was “inactive”. With O=S(=O)(NC1CC2CCC1C2)c1ccc(Br)s1 (centres undefined) the Potency was inconclusive: 29.1 µM [activator, single point]. For Cc1cccn2c(=O)c3cc(C#N)c(=NC(=O)c4ccncc4)n(CCCOC(C)C)c3nc12, the Potency was inconclusive: 7.31 µM [activator, single point]. In the case of COc1ccc(CNC(=O)C[C@H]2C[C@H](C(=O)N3CCOCC3)[C@@]3(C)c4[nH]c5cc(CCC(=O)N(C)C)ccc5c4CCN3C2=O)cc1OC, the Potency is reported as inconclusive: 6.51 µM [activator, single point]. With CC(=O)NC(Cc1c[nH]c2ccccc12)C(=O)NCCc1ccccn1 (centres undefined) the Potency was “inactive”. In the case of O=C(CCS(=O)(=O)c1cccc2nonc12)N1CCN(c2ccc(F)cc2)CC1, the Potency is reported as “inactive”. With CCOC(=O)/C=C(\C)Sc1cc(=O)oc2ccccc12 the Potency was inconclusive: 25.9 µM [activator, single point]. For COc1ccc(Cc2nnc(N/N=C/c3ccc(O)cc3)[nH]c2=O)cc1OC, the Potency was inconclusive: 0.731 µM [activator, full curve, poor fit]. For O=C(NC(=S)Nc1ccccc1N1CCCC1)c1ccc(F)cc1, the Potency was “inactive”. For COCCC(=O)N1CCC(Oc2ccc(C(=O)N3CCCCC3COC)cc2)CC1 (centres undefined), the Potency was inconclusive: 25.9 µM [activator, single point]. With CC(C)OC(=O)c1cc(C(=O)c2cc(Cl)ccc2O)coc1=N the Potency was “inactive”. For C=CCNC(=O)COc1ccc(S(=O)(=O)NC2CCCCC2)cc1, the Potency was active: 14.6 µM. For Clc1ccc(-n2ncc3c(NCc4ccco4)ncnc32)cc1, the Potency was inconclusive: 4.11 µM [activator, single point]. In the case of O=c1c(Cl)c(NCCO)cnn1-c1cccc(Cl)c1, the Potency is reported as inconclusive: 20.6 µM [activator, single point]. With CC(NC(=O)CNC(=O)c1ccccc1Br)c1cccs1 (centres undefined) the Potency was inconclusive: 14.6 µM [activator, single point]. With Cc1ccc(CNC(=O)c2cc(-c3ccccc3)nn2CC2CC(c3cccc([N+](=O)[O-])c3)=NO2)cc1 (centres undefined) the Potency was “inactive”. In the case of COc1cc(C(=O)OCC(=O)Nc2ccc(N3CCOCC3)cc2)ccc1OCC(C)C, the Potency is reported as inconclusive: 5.8 µM [activator, full curve, poor fit]. For CCc1ccccc1NC(=O)Cn1cccc1C1=NC(c2ccccc2)CO1 (centres undefined), the Potency was inconclusive: 0.259 µM [activator, full curve, poor fit]. With O=C1Nc2cc(C(=O)NCCCN3CCCC3)ccc2S/C1=C\c1ccccc1 the Potency was inconclusive: 14.6 µM [activator, partial curve, poor fit]. With Cc1ccc(S(=O)(=O)/N=C2/NC(=O)/C(=C\c3cc(Br)cc(Br)c3O)S2)cc1 the Potency was inconclusive: 18.4 µM [activator, single point]. In the case of COCCn1c(SCC(=O)N(C(C)C)C(C)C)nnc1-c1cc2ccccc2cc1O, the Potency is reported as “inactive”. For COc1cccc(/C=N/NC(=O)c2ccc3nc[nH]c3c2)c1O, the Potency was inconclusive: 18.4 µM [activator, single point]. With O=C(Cc1c(F)cccc1Cl)Nc1nccs1 the Potency was “inactive”. With Cc1ccc(C)c2[nH]c(=O)c(CN(CCN3CCCC3)C(=O)Nc3ccc(F)cc3)cc12 the Potency was “inactive”. In the case of O=C(NCc1ccccc1)C1=C[C@H](c2ccccc2)C[C@H](OCc2ccc(CO)cc2)O1, the Potency is reported as inconclusive: 5.17 µM [activator, partial curve, poor fit]. With CC(C)(C)c1cc(C(=O)N/N=C/c2ccccc2O)n(-c2ccccc2)n1 the Potency was inconclusive: 4.11 µM [activator, single point]. For CC1CCN(C(=O)c2ccc(S(=O)(=O)Cc3cc(F)ccc3F)c([N+](=O)[O-])c2)CC1, the Potency was inconclusive: 20.6 µM [activator, single point]. For O=C(C1CCCN(S(=O)(=O)c2ccc(Br)s2)C1)N1CCCCCC1 (centres undefined), the Potency was inconclusive: 6.51 µM [activator, partial curve, poor fit]. With Clc1ccc(C2Nc3cccc4cccc(c34)N2)c(Cl)c1 the Potency was inconclusive: 20.6 µM [activator, single point]. With CC(=O)NCCC(=O)Nc1nc2ccc(Oc3ccccc3)cc2s1 the Potency was “inactive”. With CCN(CC)Cc1nc2c(c(=O)[nH]1)C1(CCCCC1)Cc1ccccc1-2 the Potency was inconclusive: 16.4 µM [activator, partial curve, poor fit]. For Cc1cccc(OCCn2c(-c3ccco3)nc3ccccc32)c1, the Potency was active: 6.51 µM. In the case of COC(=O)[C@H]1C2CCC(C(=O)OC)(CC2)[C@H]1C(=O)OC, the Potency is reported as inconclusive: 4.61 µM [activator, partial curve, poor fit]. For Cc1cc(NC(=O)CCN2CC(C)OC(C)C2)ccc1Br (centres undefined), the Potency was “inactive”. For CCCN1C(=O)/C(=C/c2ccc(N3CCOCC3)cc2)NC1=S, the Potency was “inactive”. In the case of NCCOc1ccc(C2CCCCC2)cc1, the Potency is reported as inconclusive: 29.1 µM [activator, single point]. In the case of COc1ccc(C2NN=C(c3ccc(C)cc3)S2)cc1OC (centres undefined), the Potency is reported as “inactive”. In the case of Cc1ccc(-n2nc3ccc(NC(=O)C(C)C)cc3n2)cc1, the Potency is reported as “inactive”. With CSc1ccc(/C=N/Nc2cccc(C(=O)O)c2)cc1 the Potency was “inactive”. With COC(=O)c1cnc(NNC(=O)c2ccc([N+](=O)[O-])cc2)nc1C(F)(F)F the Potency was inconclusive: 0.0046 µM [activator, full curve, poor fit]. With CCS(=O)(=O)N1CCC(C(=O)NCc2ccccc2OC)CC1 the Potency was inconclusive: 25.9 µM [activator, single point]. With COc1ccc(C(CNC(=O)c2[nH]c(C)c(C(C)=O)c2C)N2CCOCC2)cc1 (centres undefined) the Potency was “inactive”. In the case of CC(C)CC1Nc2ncnc(N3CCN(c4ccccc4)CC3)c2N(Cc2ccccc2)C1=O (centres undefined), the Potency is reported as inconclusive: 32.6 µM [activator, partial curve, poor fit]. For COc1ccccc1OCCNC(=O)CNC(=O)c1ccc(C(C)(C)C)cc1, the Potency was inconclusive: 23.1 µM [activator, partial curve, poor fit]. For COc1ccccc1N1CCN(C(=O)C2CCCO2)CC1 (centres undefined), the Potency was inconclusive: 29.1 µM [activator, single point]. For COc1ccc(CN2CCNC(=O)C2CC(=O)NCc2cn3ccc(C)cc3n2)c(OC)c1 (centres undefined), the Potency was “inactive”. In the case of COc1ccc(-n2ncc3c(N4CCN(Cc5ccccc5)CC4)ncnc32)cc1, the Potency is reported as inconclusive: 18.4 µM [activator, partial curve, poor fit]. For CN(C)c1ccc(C(CNS(=O)(=O)c2ccc(F)c(F)c2)c2c[nH]c3ccccc23)cc1 (centres undefined), the Potency was inconclusive: 29.1 µM [activator, partial curve, poor fit]. With CN1CCN(C(=O)CCN2C(=O)/C(=C/c3ccccc3Cl)SC2=S)CC1 the Potency was inconclusive: 20.6 µM [activator, single point]. In the case of COc1ccccc1/C=C\C(=O)NCC(=O)N/N=C/c1cccc(OC)c1O, the Potency is reported as inconclusive: 4.61 µM [activator, single point].
